Consider two molecules from PMC6711988.

Sequences of proteins named here, by UniProt entry; tags and fusion partners are left off. A change or cut given only in a name is not applied to a line headed by its entry.
UniProt Q7XZF5: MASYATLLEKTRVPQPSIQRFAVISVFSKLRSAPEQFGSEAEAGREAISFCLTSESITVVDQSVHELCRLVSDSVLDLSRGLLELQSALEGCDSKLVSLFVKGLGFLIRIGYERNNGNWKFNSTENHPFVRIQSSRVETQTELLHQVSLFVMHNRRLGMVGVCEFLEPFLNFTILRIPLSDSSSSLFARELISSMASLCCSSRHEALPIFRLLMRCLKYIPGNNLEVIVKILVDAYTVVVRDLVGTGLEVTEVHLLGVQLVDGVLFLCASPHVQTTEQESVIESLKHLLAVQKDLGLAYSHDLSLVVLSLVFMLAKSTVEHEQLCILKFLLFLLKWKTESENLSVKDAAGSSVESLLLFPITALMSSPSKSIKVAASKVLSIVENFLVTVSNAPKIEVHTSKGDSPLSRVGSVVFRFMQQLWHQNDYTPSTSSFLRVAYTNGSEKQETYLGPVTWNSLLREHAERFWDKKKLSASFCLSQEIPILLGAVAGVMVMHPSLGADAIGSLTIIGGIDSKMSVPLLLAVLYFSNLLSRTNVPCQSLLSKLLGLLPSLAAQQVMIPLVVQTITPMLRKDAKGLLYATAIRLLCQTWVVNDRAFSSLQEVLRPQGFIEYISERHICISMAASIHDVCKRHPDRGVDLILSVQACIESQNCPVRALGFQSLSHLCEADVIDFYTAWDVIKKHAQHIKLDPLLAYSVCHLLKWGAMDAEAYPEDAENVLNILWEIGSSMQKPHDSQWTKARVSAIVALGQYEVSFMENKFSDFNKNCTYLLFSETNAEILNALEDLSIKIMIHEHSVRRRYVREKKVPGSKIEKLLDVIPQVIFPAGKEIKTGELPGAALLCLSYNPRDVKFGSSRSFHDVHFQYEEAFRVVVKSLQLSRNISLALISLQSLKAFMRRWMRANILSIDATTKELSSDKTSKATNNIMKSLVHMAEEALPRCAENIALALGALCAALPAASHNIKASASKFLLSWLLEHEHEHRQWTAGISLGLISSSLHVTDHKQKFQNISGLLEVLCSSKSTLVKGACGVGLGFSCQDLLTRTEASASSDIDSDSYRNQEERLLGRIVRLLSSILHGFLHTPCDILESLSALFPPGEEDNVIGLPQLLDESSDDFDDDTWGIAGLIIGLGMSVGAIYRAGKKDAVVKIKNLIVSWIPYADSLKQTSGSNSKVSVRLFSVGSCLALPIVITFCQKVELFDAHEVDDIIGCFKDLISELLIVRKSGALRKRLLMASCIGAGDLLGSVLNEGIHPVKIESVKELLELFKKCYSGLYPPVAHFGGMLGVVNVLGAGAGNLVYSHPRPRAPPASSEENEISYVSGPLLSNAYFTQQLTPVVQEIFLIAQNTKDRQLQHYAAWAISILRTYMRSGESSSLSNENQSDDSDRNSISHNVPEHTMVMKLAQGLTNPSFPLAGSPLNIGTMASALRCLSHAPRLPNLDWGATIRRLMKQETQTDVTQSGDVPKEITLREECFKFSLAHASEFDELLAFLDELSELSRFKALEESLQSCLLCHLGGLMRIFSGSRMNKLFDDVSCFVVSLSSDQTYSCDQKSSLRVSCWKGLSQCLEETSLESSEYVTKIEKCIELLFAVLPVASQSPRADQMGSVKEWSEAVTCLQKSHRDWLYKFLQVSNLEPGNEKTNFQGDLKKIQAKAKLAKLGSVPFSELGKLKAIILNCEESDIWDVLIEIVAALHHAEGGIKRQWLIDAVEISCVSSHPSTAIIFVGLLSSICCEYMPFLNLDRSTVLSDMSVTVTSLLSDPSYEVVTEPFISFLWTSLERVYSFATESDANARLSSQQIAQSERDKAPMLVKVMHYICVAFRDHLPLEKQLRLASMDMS
UniProt F4JFM9: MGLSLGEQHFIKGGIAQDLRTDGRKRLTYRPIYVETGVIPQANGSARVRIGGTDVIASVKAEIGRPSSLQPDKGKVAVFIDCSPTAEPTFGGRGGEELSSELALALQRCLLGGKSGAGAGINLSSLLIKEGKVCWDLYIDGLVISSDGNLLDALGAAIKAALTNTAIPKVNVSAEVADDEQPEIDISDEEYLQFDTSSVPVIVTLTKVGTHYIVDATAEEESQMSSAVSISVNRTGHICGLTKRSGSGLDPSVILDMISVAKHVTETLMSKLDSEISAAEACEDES

Like-named read-outs stand apart in the source and are kept apart here. Results are given in words; binding and its absence hold for the method and conditions named. In cells and extracts the contact can be indirect. Here binding means that the protein was enriched with, or labelled near, the bait; the list need not be complete. For some assays here: A no says only that the protein was not detected with the bait. For some assays here: Tags and fused reporters may be left off the sequences shown.

Common to all, as to experiment: affinity purification with mass spectrometry; GFP-tagged bait captured from cleared lysate of Arabidopsis flower buds (50 mM Tris HCl pH 7.5, 25 or 50 mM NaCl, 1% Triton) on magnetic microbeads coupled to GFP antibodies, five washes; eluate analysed by nanoLC-MS/MS; enrichment against 20 control IPs (adjP < 0.05)
Assay [1] concerns the target RESURRECTION1 (RST1) fused to GFP (Arabidopsis thaliana) (UniProt Q7XZF5).
Assay [2] shares this target. The source holds these as a separate data set.
In assay [3] the target is T1, CER7-GFP (Arabidopsis thaliana) (UniProt Q9M209).
T1 sequence: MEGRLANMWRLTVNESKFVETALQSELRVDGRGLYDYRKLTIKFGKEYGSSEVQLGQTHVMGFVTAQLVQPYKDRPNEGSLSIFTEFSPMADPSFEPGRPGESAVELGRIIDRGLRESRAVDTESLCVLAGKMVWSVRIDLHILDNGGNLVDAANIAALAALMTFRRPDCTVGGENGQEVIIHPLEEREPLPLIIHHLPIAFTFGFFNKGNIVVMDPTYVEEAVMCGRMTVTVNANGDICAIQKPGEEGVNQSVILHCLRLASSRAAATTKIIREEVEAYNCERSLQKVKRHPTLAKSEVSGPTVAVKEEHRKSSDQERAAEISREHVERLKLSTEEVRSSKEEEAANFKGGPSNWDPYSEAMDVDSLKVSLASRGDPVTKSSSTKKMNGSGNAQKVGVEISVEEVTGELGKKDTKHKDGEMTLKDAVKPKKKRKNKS

Assay [4] addresses T2, RRP41-GFP (Arabidopsis thaliana) (UniProt Q9SP08).
T2 sequence: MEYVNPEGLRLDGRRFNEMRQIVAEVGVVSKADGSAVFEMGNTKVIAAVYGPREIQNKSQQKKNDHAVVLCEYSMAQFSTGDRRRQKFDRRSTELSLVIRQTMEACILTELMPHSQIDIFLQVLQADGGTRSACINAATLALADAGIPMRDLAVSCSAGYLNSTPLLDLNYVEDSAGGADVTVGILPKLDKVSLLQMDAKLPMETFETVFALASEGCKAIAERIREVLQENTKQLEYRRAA

Assay [5] concerns the target T3, RRP45A-GFP (Arabidopsis thaliana) (UniProt Q9LDM2).
T3 sequence: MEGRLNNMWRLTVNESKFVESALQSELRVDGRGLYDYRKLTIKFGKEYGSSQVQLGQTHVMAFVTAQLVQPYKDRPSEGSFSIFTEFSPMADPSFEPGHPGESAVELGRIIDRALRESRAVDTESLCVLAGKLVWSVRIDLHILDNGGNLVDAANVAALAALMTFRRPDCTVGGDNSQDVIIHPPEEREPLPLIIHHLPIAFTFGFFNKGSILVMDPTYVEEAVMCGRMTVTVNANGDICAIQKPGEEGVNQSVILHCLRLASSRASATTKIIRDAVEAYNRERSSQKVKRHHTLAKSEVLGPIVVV

For the molecule RRP42 (from UniProt F4JFM9), in assay [1], the binding result is listed as “binds”.

B1: RST1 … PROTEIN (RIPR) (protein, UniProt F4K8S5 1-355)
chain: MDSKSLAKSKRAHTLHHSKKSHSVHKPKVPGVSEKNPEKLQGNQTKSPVQSRRVSALPSNWDRYDDELDAAEDSSISLHSDVIVPKSKGADYLHLISEAQAESNSKIENNLDCLSSLDDLLHDEFSRVVGSMISARGEGILSWMEDDNFVVEEDGSGSYQEPGFLSLNLNVLAKTLENVDLHERLYIDPDLLPLPELNTSQTKVSRNEEPSHSHIAQNDPIVVPGESSVREAESLDQVKDILILTDESEKSSAIEADLDLLLNSFSEAHTQPNPVASASGKSSAFETELDSLLKSHSSTEQFNKPGNPSDQKIHMTGFNDVLDDLLESTPVSIIPQSNQTSSKVLDDFDSWLDTI
As to B1, the binding entry was “binds” in assay [2], “binds” in assay [3], “binds” in assay [4] and “no binding” in assay [5].
